Results published in paper PMC3458939.
Results are given in words; binding and its absence hold for the method and conditions named. Binding seen in cells or lysates may run through a third protein. Some results given as binding are weak or reduced against the parent protein; the word gives no strength.

Biological target: bZIP63-YN / bZIP63-YC (UniProt B9DGI8)
Assay: split reporter; mYFP BiFC of YN and YC fusions of the same protein in transfected Arabidopsis cell-culture protoplasts, read by flow cytometry (test of detection sensitivity)

binding: binds
B1: bZIP63-YN / bZIP63-YC (protein, UniProt B9DGI8 1-314)
chain: MEKVFSDEEISGNHHWSVNGMTSLNRSASEWAFNRFIQESSAAADDGESTTACGVSVSSPPNVPVDSEEYRAFLKSKLNLACAAVAMKRGTFIKPQDTSGRSDNGGANESEQASLASSKATPMMSSAITSGSELSGDEEEADGETNMNPTNVKRVKRMLSNRESARRSRRRKQAHLSELETQVSQLRVENSKLMKGLTDVTQTFNDASVENRVLKANIETLRAKVKMAEETVKRLTGFNPMFHNMPQIVSTVSLPSETSNSPDTTSSQVTTPEIISSGNKGKALIGCKMNRTASMRRVESLEHLQKRIRSVGDQ
